From the supplement of paper PMC12067093, “Discovery and optimisation of a covalent ligand for TRIM25 and its application to targeted protein ubiquitination” (Chemical Science, 2025)
This is one part of the list.

Protein sequences, listed by entry. Tags and fused reporters are not part of them. Lines headed by an entry give the natural chain unless they say otherwise; changes in a name come on top.
UniProt O15270: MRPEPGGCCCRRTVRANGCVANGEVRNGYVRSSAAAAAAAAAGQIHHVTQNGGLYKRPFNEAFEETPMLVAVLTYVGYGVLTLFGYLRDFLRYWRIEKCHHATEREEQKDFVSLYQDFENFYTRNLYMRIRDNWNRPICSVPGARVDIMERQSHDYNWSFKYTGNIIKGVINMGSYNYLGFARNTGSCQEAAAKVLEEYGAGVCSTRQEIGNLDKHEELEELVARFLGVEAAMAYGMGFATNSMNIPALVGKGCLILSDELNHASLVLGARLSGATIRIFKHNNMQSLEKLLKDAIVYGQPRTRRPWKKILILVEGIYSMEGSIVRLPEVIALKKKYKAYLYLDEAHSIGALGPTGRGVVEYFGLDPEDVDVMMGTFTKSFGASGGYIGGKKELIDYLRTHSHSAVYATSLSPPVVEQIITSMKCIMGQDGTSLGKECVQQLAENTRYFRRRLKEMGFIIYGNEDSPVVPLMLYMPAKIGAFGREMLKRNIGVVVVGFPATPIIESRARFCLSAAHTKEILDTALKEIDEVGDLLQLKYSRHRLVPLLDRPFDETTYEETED
UniProt P78362, whole entry, looked up: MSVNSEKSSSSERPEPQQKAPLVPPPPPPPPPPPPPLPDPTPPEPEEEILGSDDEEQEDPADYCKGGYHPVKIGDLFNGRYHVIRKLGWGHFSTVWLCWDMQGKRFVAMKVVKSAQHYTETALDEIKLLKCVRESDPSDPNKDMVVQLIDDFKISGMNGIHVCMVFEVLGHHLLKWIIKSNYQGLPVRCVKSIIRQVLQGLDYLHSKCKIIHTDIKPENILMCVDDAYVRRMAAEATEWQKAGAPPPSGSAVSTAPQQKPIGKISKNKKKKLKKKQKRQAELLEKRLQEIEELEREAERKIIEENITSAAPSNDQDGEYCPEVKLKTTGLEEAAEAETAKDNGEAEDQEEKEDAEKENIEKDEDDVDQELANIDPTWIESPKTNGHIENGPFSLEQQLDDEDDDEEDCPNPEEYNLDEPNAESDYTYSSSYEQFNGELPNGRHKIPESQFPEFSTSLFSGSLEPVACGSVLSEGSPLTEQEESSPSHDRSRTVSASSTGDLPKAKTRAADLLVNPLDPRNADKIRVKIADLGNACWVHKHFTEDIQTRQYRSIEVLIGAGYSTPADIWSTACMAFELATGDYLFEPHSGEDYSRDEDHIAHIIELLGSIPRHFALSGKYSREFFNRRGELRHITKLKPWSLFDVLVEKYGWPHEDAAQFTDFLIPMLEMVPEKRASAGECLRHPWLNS
UniProt Q96JI7: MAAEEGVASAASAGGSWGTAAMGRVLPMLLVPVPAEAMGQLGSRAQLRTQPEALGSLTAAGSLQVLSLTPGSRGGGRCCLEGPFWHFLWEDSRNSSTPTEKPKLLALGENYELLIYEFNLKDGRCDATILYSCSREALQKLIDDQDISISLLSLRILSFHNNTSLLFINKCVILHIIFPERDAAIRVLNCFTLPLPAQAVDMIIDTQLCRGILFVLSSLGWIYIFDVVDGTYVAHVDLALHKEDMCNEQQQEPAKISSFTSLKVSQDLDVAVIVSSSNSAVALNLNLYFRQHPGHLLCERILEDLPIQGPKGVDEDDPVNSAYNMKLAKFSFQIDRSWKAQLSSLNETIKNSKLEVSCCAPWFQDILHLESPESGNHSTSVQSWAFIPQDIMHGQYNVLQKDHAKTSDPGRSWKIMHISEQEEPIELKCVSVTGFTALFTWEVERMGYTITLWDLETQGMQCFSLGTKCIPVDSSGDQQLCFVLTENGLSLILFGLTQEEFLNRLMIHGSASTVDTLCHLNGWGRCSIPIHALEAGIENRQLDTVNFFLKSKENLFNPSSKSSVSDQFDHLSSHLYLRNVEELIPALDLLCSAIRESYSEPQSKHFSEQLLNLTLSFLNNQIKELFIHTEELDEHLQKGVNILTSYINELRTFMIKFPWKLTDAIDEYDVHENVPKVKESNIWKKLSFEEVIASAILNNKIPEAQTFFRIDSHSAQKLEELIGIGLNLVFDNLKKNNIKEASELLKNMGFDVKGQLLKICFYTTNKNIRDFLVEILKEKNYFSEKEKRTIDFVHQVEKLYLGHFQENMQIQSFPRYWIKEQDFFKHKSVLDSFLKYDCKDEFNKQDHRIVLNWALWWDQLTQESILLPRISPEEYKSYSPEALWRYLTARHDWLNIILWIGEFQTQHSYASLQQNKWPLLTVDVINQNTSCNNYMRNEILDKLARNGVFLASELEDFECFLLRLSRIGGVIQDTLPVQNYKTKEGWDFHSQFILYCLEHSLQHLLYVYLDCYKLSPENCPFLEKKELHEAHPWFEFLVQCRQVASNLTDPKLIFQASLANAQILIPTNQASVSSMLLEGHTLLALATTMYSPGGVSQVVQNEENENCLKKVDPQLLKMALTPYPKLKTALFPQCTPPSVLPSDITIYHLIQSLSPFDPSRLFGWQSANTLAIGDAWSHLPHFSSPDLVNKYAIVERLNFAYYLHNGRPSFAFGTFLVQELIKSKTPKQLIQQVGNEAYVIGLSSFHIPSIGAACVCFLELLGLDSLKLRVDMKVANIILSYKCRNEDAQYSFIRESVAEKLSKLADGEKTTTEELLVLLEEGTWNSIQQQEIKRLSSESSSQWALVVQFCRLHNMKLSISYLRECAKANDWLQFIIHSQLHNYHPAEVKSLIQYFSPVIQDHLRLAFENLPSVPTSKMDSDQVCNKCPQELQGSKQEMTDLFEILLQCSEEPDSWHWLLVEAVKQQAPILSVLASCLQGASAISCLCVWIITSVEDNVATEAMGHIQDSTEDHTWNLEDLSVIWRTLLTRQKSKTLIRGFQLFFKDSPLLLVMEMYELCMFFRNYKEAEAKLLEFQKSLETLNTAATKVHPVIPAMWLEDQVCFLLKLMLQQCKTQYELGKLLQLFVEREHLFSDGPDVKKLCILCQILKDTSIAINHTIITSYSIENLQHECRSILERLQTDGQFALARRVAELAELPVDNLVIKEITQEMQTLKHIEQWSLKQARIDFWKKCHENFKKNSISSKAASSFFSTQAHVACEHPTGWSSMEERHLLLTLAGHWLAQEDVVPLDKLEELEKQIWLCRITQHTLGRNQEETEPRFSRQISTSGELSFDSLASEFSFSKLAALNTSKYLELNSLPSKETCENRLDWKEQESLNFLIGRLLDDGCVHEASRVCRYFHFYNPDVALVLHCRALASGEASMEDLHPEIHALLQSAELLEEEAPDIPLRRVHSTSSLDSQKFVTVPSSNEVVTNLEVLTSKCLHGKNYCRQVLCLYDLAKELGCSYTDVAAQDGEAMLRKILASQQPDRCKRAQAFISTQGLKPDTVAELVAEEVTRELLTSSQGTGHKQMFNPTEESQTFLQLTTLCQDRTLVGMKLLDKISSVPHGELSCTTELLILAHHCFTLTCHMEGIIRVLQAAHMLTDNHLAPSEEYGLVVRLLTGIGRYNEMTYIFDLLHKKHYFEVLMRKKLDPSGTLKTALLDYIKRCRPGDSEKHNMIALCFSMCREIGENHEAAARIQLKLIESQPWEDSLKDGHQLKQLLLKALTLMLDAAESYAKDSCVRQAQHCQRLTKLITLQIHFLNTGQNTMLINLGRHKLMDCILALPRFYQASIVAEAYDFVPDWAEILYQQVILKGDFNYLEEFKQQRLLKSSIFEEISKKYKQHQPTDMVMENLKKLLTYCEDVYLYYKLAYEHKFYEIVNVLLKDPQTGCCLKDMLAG
UniProt Q96R06: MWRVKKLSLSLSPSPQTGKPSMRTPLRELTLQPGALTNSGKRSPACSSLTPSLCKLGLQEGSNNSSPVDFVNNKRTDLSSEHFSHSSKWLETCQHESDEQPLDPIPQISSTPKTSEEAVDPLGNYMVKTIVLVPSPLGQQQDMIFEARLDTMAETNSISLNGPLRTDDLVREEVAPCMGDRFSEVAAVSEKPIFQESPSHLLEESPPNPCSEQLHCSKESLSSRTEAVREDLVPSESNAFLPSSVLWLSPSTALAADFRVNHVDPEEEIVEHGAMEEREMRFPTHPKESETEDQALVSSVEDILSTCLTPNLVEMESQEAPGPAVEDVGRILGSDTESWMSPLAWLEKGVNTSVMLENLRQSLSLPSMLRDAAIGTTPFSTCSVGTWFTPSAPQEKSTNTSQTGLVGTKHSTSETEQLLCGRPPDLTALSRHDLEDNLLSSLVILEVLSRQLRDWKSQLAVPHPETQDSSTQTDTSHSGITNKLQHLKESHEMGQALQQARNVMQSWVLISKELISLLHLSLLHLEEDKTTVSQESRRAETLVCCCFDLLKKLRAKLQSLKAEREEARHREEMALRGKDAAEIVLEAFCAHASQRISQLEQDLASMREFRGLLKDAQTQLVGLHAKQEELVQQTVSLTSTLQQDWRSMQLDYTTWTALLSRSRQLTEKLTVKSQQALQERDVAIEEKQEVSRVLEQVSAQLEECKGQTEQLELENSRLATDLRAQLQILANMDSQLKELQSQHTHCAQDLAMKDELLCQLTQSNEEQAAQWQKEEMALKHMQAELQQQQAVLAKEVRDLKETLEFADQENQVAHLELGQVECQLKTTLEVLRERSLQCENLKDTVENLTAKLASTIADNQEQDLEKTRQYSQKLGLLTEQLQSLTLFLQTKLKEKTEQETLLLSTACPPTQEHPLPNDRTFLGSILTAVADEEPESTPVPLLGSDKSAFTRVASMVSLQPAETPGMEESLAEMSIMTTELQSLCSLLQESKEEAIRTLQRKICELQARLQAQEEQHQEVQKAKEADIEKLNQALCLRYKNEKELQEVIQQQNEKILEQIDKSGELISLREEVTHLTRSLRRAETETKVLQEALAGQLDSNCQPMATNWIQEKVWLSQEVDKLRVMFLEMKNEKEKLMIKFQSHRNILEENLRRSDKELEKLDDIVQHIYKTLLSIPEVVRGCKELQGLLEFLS
UniProt P00441, whole entry, looked up: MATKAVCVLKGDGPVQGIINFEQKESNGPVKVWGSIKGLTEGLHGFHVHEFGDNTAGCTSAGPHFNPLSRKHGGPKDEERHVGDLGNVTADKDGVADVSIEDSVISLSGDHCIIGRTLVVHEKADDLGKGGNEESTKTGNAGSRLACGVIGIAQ
UniProt Q00796: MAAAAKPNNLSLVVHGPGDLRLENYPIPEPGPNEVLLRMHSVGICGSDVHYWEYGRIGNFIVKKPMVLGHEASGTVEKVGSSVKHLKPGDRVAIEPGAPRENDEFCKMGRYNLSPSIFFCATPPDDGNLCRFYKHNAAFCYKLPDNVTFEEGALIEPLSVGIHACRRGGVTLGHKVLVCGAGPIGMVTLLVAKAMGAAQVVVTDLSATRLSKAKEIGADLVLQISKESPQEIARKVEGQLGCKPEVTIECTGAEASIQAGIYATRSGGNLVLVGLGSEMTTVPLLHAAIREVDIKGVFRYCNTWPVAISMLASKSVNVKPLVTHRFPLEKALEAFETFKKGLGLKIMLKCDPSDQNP
UniProt P19623: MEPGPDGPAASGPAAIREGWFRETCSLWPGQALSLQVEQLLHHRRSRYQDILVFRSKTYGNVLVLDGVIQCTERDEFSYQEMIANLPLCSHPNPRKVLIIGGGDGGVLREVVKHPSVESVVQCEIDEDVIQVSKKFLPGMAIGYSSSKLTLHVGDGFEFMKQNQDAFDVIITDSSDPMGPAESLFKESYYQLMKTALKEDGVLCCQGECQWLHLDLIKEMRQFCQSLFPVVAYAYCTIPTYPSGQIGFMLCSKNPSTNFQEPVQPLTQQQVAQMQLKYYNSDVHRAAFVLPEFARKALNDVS
UniProt P30626: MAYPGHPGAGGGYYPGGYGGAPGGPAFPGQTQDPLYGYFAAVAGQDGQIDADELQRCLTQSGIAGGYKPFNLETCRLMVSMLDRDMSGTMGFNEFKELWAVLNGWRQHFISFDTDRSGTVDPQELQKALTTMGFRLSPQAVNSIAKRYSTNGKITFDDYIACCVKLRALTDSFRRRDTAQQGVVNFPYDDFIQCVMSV
UniProt Q7Z614: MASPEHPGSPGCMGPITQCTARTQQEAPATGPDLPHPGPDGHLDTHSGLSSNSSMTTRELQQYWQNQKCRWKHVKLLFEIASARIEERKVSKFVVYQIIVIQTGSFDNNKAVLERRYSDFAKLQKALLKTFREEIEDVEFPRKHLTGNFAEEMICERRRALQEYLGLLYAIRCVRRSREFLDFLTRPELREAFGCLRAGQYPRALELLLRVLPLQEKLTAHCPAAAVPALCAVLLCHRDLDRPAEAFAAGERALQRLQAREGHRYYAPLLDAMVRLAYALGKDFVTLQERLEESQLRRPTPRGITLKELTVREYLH

compound: Cc1cc(ccc1-c1ccccc1)C(=O)N1CCCN(CC1)C(=O)CCl [compound 10]; test: probe-labelled cysteine peptide fold change vs DMSO (competition) (log2 fold change); higher = less target engagement (more negative = stronger competition); details: 10 µM; THP-1; incubation time: 4 h
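Note: competitive profiling in live THP-1 cells: cysteine peptides tagged with an iodoacetamide desthiobiotin (IA-DTB) probe, intensity after compound treatment relative to DMSO-treated cells.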

Target	probe-labelled cysteine peptide fold change
SPTLC2_O15270_139_IRDNWNRPICSVPGAR (UniProt O15270)	-0.0633
SP100_P23497_266+270_EMPCPLPCDEESPEAELHNHGIQINSCSVR (UniProt P23497)	-0.396
SRPK2_P78362_223_IIHTDIKPENILMCVDDAYVR (UniProt P78362)	0.036
SPG11_Q96JI7_1890_LLDDGCVHEASR (UniProt Q96JI7)	-0.25
SPECC1_Q5M775_598_DLLELSCNELR (UniProt Q5M775)	0.311
SPAG5_Q96R06_907_TEQETLLLSTACPPTQEHPLPNDR (UniProt Q96R06)	-0.115
SP100_P23497_373_EGQEATCSRPQIVPEPMDFRK (UniProt P23497)	-0.194
SP100_P23497_309_VECQAQAR (UniProt P23497)	-0.17
SOD1_P00441_7_AVCVLK (UniProt P00441)	0.272
SORD_Q00796_301_YCNTWPVAISMLASK (UniProt Q00796)	0.251
SOD1_P00441_147_LACGVIGIAQ (UniProt P00441)	-0.188
SRCAP_Q6ZRS2_2372_EEVFRLPQEEEEGPGAGDESSCGTGGGTHR (UniProt Q6ZRS2)	0.02
SP3_Q02447_623+628_KQHICHIPGCGK (UniProt Q02447)	0.0494
SRM_P19623_205+209_EDGVLCCQGECQWLHLDLIK (UniProt P19623)	0.0892
SRI_P30626_162_ITFDDYIACCVK (UniProt P30626)	0.0614
SNX20_Q7Z614_155_HLTGNFAEEMICER (UniProt Q7Z614)	-0.139

Reformatted: results already given.
Target,probe-labelled cysteine peptide fold change
SRI_P30626_162_ITFDDYIACCVK (UniProt P30626),0.0614
SNX20_Q7Z614_155_HLTGNFAEEMICER (UniProt Q7Z614),-0.139
